These are yes or no findings as the source states them, for the method shown. Binding seen in cells or lysates may run through a third protein. Some binding calls cover weakened binding; strength is not graded here. For some of these results: Sequences can lack the tags named with a protein.
Legend:
[1] = target: Myosin heavy chain 9 (MYH9), endogenous in MDA-231 cells (human (endogenous in MDA-MB-231)) (UniProt P35579); assay: co-IP; endogenous proteins in MDA-231 cells
[2] = target: T1, Transmembrane protein 120B (TMEM120B), endogenous (human (endogenous in MDA-MB-231)) (UniProt A0PK00); assay: co-IP; endogenous proteins in MDA-231 cells
T1 sequence: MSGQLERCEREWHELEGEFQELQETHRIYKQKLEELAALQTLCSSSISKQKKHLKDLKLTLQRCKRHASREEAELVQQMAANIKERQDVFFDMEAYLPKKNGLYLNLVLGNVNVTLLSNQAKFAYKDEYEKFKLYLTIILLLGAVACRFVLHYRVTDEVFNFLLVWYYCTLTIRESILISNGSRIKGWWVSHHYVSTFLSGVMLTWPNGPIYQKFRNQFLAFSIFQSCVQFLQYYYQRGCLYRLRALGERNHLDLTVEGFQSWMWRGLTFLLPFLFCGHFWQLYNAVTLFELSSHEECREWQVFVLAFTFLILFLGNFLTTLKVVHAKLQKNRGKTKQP

The chains behind the UniProt entries cited, without tags or fusion partners.
UniProt P35579: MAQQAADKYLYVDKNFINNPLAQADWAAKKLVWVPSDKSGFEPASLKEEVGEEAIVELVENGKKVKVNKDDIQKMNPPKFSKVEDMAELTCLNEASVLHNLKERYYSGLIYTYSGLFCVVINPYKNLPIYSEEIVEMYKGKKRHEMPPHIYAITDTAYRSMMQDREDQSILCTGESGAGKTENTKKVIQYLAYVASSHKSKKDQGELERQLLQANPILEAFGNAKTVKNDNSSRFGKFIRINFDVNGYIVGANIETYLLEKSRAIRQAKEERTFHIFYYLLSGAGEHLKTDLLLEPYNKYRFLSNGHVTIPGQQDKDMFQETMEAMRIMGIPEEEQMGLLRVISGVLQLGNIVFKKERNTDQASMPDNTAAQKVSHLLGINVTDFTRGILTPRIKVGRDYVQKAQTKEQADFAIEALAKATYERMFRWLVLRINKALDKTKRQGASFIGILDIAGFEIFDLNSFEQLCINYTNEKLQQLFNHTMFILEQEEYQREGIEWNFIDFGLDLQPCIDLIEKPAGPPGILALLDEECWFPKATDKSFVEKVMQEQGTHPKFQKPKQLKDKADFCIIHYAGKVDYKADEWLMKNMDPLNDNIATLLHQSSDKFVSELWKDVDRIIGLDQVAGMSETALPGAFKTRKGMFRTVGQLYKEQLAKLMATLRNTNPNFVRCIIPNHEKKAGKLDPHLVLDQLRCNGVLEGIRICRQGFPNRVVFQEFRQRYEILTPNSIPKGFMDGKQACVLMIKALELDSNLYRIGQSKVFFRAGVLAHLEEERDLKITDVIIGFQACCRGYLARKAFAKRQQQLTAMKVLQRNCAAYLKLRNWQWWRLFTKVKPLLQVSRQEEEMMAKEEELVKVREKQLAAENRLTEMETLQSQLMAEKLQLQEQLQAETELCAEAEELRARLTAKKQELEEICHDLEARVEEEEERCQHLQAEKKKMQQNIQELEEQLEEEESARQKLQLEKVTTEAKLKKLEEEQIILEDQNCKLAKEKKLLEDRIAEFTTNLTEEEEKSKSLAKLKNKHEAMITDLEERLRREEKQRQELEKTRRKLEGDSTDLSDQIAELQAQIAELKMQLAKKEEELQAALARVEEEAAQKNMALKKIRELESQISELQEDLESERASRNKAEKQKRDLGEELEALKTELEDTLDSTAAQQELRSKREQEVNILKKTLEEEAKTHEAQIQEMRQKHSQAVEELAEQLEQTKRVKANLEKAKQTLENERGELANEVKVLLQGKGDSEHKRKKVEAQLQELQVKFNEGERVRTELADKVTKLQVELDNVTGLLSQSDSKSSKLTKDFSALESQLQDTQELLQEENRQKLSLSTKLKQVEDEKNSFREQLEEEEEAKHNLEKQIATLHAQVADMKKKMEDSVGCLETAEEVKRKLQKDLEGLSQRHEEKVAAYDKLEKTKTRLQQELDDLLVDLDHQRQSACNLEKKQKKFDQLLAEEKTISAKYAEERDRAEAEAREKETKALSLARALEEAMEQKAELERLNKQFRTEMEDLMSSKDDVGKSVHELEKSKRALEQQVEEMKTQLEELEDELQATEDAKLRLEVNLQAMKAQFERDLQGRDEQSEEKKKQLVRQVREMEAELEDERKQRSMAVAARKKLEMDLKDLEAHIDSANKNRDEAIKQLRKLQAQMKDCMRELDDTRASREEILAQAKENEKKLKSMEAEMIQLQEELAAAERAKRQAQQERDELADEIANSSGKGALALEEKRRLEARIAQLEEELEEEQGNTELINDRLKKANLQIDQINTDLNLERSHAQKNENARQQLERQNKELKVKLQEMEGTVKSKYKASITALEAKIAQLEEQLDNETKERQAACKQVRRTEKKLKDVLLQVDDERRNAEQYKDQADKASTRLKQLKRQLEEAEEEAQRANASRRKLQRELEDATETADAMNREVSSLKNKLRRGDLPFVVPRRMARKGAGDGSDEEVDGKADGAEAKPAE
UniProt Q8IWT3: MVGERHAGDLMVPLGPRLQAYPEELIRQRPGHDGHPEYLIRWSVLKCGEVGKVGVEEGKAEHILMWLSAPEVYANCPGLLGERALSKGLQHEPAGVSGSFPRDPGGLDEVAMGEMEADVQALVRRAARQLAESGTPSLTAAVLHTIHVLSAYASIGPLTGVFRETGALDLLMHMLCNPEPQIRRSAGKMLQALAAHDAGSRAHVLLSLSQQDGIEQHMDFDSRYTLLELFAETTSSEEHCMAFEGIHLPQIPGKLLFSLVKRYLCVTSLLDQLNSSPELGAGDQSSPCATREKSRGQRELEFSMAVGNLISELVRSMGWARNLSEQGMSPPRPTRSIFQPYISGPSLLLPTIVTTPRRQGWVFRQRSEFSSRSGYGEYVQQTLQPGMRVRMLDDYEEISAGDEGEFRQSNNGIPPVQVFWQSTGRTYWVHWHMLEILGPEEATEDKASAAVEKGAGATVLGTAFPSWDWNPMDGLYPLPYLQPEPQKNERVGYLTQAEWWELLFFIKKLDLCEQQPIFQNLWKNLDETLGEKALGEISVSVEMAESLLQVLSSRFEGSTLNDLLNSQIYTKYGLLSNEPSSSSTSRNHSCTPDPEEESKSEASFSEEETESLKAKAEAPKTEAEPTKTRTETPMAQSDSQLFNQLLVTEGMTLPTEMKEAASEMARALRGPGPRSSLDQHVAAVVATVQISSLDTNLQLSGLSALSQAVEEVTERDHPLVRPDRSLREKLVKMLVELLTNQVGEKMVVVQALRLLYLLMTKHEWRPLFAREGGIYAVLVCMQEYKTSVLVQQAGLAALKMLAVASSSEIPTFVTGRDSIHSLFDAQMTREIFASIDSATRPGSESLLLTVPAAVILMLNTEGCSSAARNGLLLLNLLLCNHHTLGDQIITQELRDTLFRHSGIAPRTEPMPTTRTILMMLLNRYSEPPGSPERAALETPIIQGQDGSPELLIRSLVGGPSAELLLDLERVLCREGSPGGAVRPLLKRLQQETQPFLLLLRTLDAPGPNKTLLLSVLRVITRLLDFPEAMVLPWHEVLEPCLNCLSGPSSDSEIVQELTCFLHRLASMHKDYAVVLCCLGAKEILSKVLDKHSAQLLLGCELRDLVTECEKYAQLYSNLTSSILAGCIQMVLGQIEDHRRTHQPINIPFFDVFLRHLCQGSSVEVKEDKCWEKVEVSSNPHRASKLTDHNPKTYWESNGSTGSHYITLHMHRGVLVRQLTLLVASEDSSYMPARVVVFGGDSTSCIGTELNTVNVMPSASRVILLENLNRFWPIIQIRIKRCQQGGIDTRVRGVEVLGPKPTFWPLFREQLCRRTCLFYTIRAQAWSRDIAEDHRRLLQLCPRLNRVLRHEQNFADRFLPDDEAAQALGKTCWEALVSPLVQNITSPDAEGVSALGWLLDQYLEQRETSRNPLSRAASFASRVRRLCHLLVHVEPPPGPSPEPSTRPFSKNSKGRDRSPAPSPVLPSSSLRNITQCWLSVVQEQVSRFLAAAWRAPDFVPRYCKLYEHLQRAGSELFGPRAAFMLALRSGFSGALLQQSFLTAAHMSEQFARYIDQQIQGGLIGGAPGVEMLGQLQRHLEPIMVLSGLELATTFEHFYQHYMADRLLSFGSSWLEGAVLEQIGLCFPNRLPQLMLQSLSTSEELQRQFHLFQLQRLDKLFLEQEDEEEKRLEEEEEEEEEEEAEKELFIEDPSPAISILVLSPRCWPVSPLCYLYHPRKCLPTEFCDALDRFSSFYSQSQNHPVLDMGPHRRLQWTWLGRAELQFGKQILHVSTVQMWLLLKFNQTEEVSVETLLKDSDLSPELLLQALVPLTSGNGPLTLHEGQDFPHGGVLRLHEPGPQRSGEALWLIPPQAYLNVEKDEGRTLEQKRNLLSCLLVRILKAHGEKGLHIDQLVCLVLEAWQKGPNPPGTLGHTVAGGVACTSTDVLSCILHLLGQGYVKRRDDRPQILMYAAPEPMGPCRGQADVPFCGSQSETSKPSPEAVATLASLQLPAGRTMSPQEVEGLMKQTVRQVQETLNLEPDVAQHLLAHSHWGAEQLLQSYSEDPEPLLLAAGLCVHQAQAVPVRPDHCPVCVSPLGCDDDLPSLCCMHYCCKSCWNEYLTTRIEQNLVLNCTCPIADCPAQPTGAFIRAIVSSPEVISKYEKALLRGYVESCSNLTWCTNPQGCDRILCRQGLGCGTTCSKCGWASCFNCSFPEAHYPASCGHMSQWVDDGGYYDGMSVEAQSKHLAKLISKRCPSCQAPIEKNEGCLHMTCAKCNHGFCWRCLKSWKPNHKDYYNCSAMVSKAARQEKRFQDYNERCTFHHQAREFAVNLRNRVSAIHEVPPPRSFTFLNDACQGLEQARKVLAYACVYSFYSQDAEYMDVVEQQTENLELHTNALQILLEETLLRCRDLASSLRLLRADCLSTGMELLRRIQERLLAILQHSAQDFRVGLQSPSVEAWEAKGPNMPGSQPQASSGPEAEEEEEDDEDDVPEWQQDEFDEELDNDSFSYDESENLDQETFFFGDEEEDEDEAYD
UniProt Q9GZV5: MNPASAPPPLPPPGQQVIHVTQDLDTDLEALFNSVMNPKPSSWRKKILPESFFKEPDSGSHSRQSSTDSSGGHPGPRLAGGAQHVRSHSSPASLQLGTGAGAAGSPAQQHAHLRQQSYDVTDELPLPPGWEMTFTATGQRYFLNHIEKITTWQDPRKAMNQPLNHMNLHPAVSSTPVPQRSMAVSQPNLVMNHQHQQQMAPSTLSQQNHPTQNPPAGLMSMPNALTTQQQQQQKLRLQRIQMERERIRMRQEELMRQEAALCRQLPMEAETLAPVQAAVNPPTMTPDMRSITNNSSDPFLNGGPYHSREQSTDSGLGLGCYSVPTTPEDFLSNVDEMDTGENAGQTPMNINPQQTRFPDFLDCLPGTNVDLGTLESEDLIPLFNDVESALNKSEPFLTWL

[3] = target: Myosin heavy chain 9 (MYH9) in SK-BR-3 cells (human (endogenous in SK-BR-3)) (UniProt P35579); assay: co-IP; SK-BR-3 cells overexpressing TMEM120B and CUL9 in different doses
[4] = target: T2, TMEM120B-Myc (pCMV6-TMEM120B-Myc), full length (human) (UniProt A0PK00); assay: as above
T2 sequence: T1 sequence

[5] = target: T2, TMEM120B-Myc (pCMV6-TMEM120B-Myc), full length (human); assay: co-IP; SK-BR-3 cells transfected with TMEM120B or MYH9 plasmids (wild type or deletion mutants)
[6] = target: T1, Transmembrane protein 120B (TMEM120B), endogenous (human (endogenous in MDA-MB-231)); assay: co-IP; endogenous proteins; cell line not stated (Fig. S5A)

## CUL9, endogenous in MDA-231 cells (from UniProt Q8IWT3 1-2517)
[1]
  binding: binds
[2]
  binding: binds

## CUL9-HA (pCMV6-CUL9-HA) (from UniProt Q8IWT3 1-2517)
[3]
  binding: binds

## Myosin heavy chain 9 (MYH9) in SK-BR-3 cells (from UniProt P35579 1-1960)
[4]
  binding: binds
[5]
  binding: binds

## Myosin heavy chain 9 (MYH9), endogenous in MDA-231 cells (from UniProt P35579 1-1960)
[2]
  binding: binds

## Transcriptional coactivator with PDZ-binding motif (TAZ), endogenous (from UniProt Q9GZV5 1-400)
[6]
  binding: no binding
